Test results published in paper PMC7058624.
No constants are given. Whether binding was seen depends on the method and setting. In cells and extracts the contact can be indirect. Some binding calls cover weakened binding; strength is not graded here. Where a sequence is shown, tags or fusion partners need not be part of it.

Molecular target: T1, HA-Id3 (mouse full-length Id3 fused to a Hemagglutinin tag) (mouse), P41133
T1 chain: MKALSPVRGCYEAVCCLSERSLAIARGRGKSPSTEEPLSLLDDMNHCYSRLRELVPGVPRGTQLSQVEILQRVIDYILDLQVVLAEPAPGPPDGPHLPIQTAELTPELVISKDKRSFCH
Assay: co-IP; HA-Tag Co-IP kit (Thermo Fisher); WT mouse BMMSCs transfected with vector or HA-Id3 plasmid, cold RIPA lysate, anti-HA agarose, 4 °C overnight, washed with TBS-T, eluate analysed by western blot
Settings: remark: other sources report otherwise

binding: binds
B1: E2A (basic helix-loop-helix protein E2A), P15806 1-651 (protein)
chain: MMNQSQRMAPVGSDKELSDLLDFSMMFPLPVANGKSRPASLGGTQFAGSGLEDRPSSGSWGSSDQNSSSFDPSRTYSEGAHFSDSHSSLPPSTFLGAGLGGKGSERNAYATFGRDTSVGTLSQAGFLPGELSLSSPGPLSPSGIKSSSQYYPSFPSNPRRRAADGGLDTQPKKVRKVPPGLPSSVYPPSSGDSYSRDAAAYPSAKTPSSAYPSPFYVADGSLHPSAELWSTPSQVGFGPMLGDGSSPLPLAPGSSSVGSGTFGGLQQQDRMGYQLHGSEVNGSLPAVSSFSAAPGTYSGTSGHTPPVSGAAAESLLGTRGTTASSSGDALGKALASIYSPDHSSNNFSPSPSTPVGSPQGLPGTSQWPRAGAPSALSPNYDAGLHGLSKMEDRLDEAIHVLRSHAVGTASDLHGLLPGHGALTTSFTGPMSLGGRHAGLVGGSHPEEGLTSGASLLHNHASLPSQPSSLPDLSQRPPDSYSGLGRAGTTAGASEIKREEKEDEEIASVADAEEDKKDLKVPRTRTSPDEDEDDLLPPEQKAEREKERRVANNARERLRVRDINEAFKELGRMCQLHLSSEKPQTKLLILHQAVAVILSLEQQVRERNLNPKAACLKRREEEKVSGVVGDPQLALSAAHPGLGEAHNPAGHL
